The text below walks through data of PubChem BioAssay AID200 (DTP/NCI, 2004).

The list does not hold the whole screen: it gathers tests that were run many times, whatever their T/C, doses with no T/C, and many T/C values between a quarter and a half above the control. Further doses and runs are listed elsewhere. T/C is the treated group as % of the vehicle group. Some entries give survivors of the animals treated and no T/C: the source files T/C as zero there, which appears to mark a toxic dose or a test without result, not a measured value. Some survivor counts are full or nearly so, which does not show that the dose was tolerated: the source hardly ever lists a survival T/C far under the control, and the zero likely stands for such cases as well. Counts of survivors are from the toxicity check (mostly the fifth day) where no day follows; animals may have died later. Schedule codes are those of the source, read here as Q, the interval in days (D) or hours (H), X, the number of doses. Some entries were tested several times; the results are listed from low to high. For survival time, this PubChem deposit counts one and a half times the control or more as active, and values a quarter to a half above the control carry no call in these data; other NCI protocols may use other cut-offs. Some T/C values are followed by the survivors on the day toxicity was checked, most often the fifth; without a count, all were alive then.

The test system of the experiment is B6C3F1 mice, B16 melanoma ip, median survival T/C. Briefly: NCI In Vivo Anticancer Drug Screen. Data for tumor model B16 Melanoma (intraperitoneal) in B6C3F1 mice. As to conditions: T/C endpoint: median survival time, higher T/C = longer survival. The method, boiled down:
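Transplantable tumor in mice; treated vs vehicle control groups; survival or tumor size measured; value = T/C ratio.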

Where [1] appears, read: dose: 50.0 mg/kg/injection, schedule: Q01DX009 (ip), vehicle: saline.
Where [2] appears, read: dose: 400.0 mg/kg/injection, schedule: Q01DX009 (ip), vehicle: Klucel (hydroxypropylcellulose) (HPC).
Setting [3] is: dose: 25.0 mg/kg/injection, schedule: Q01DX009 (ip), vehicle: Klucel (hydroxypropylcellulose) (HPC).

In the case of `O=C(Nc1ccc([N+](=O)[O-])cc1)Nc1nccs1`, the T/C (dose: 25.0 mg/kg/injection, schedule: Q01DX009 (ip), vehicle: distilled water + Tween-80) is 141 % of control. Besides, the survivor count is 6 of 10 (dose: 100.0 mg/kg/injection, schedule: Q01DX009 (ip), vehicle: distilled water + Tween-80) and 0 of 10 (dose: 200.0 mg/kg/injection, schedule: Q01DX009 (ip), vehicle: distilled water + Tween-80).
In the case of `CSC(SC)=C1C(=O)NC(=O)NC1=O`, the survivor count under setting [1] is given as 5 of 10.
As to `CCCCNC(C)[C@]1(O)Cc2c(O)c3c(c(O)c2[C@@H](OC2CC(N)C(O)C(C)O2)C1)C(=O)c1c(OC)cccc1C3=O` (stereo partly specified), the T/C (dose: 0.38 mg/kg/injection, schedule: Q01DX009 (ip), vehicle: saline) is 132 % of control. Further, under “dose: 12.0 mg/kg/injection, schedule: Q01DX009 (ip), vehicle: saline”, the survivor count was 10 of 10 and 9 of 9.
As to `CCOC(=O)Nc1cc2c(c(N)n1)N=C(c1ccccc1)CN2`, the survivor count runs as follows: (dose: 10.0 mg/kg/injection, schedule: Q01DX009 (ip), vehicle: saline with Tween-80) 1 of 10; (dose: 20.0 mg/kg/injection, schedule: Q01DX009 (ip), vehicle: saline with Tween-80) 0 of 10.
On to `CC1=C(C(N)=O)C(c2ccccc2)NC(=S)N1` (stereo unspecified), for which the survivor count under setting [2] is reported as 8 of 10.
Turning to `COC(=O)[C@@]12OC[C@]34[C@H]([C@@H](O)[C@@H]1O)[C@@]1(C)CC(=O)C(OC(=O)CC(=O)OC5=C(C)[C@@H]6C[C@H]7OC(=O)[C@H](OC(=O)/C=C(\C)C(C)C)[C@H]8[C@]9(C(=O)OC)OC[C@]78[C@H]([C@@H](O)[C@@H]9O)[C@@]6(C)CC5=O)=C(C)[C@@H]1C[C@H]3OC(=O)[C@H](OC(=O)/C=C(\C)C(C)C)[C@@H]24`, the T/C runs as follows: (dose: 0.37 mg/kg/injection, schedule: Q01DX009 (ip), vehicle: saline + Tween-80 + alcohol) 139 % of control; (dose: 0.75 mg/kg/injection, schedule: Q01DX009 (ip), vehicle: saline + Tween-80 + alcohol) 142 % of control. In addition, the survivor count runs as follows: (dose: 3.0 mg/kg/injection, schedule: Q01DX009 (ip), vehicle: saline + Tween-80 + alcohol) 1 of 10; (dose: 6.0 mg/kg/injection, schedule: Q01DX009 (ip), vehicle: saline + Tween-80 + alcohol) 0 of 10.
For `O=c1cc(-c2ccccc2)[nH]c2c1CCCC2`, where the note is “dose: 400.0 mg/kg/injection, schedule: Q01DX009 (ip), vehicle: saline with Tween-80”, the survivor count was 7 of 10.
In the case of `CN1CCc2c(c3ccccc3c3ccccc23)C1`, the T/C under setting [3] is 134 % of control. Besides, the survivor count is, setting by setting: (dose: 100.0 mg/kg/injection, schedule: Q01DX009 (ip), vehicle: Klucel (hydroxypropylcellulose) (HPC)) 2 of 7; (dose: 200.0 mg/kg/injection, schedule: Q01DX009 (ip), vehicle: Klucel (hydroxypropylcellulose) (HPC)) 0 of 7; under setting [2], 0 of 7.
As for `CCCNc1ncnc2c1cnn2C`, the survivor count under setting [1] was 10 of 10.
For `CSCCC(NC(=O)CNC(=O)OCc1ccccc1)C(=O)O` (stereo unspecified), under setting [3], the T/C is 127 % of control.
With `O=CC(NC(=O)N(CCCl)N=O)C(O)C(O)C(O)CO` (stereo unspecified), the T/C by setting is: (dose: 1.87 mg/kg/injection, schedule: Q01DX005 (ip), vehicle: saline) 131 % of control [9 of 10 alive on day 9]; (dose: 1.87 mg/kg/injection, schedule: Q01DX009 (ip), vehicle: saline) 156 [9 of 10 alive], 162, 165, 169 [9 of 10 alive], 175, 188 % of control [8 of 10 alive]; (dose: 3.75 mg/kg/injection, schedule: Q01DX001 (ip), vehicle: saline) 129 % of control; (dose: 3.75 mg/kg/injection, schedule: Q01DX005 (ip), vehicle: saline) 141 % of control; (dose: 3.75 mg/kg/injection, schedule: Q01DX009 (ip), vehicle: saline) 193, 213, 217, 218, 224, 273 % of control; (dose: 7.5 mg/kg/injection, schedule: Q01DX001 (ip), vehicle: saline) 131 % of control. Also, the T/C is 117 [9 of 10 alive], 181, 189, 209, 340, 372 % of control [9 of 10 alive] (dose: 7.5 mg/kg/injection, schedule: Q01DX009 (ip), vehicle: saline) and 149 % of control (dose: 15.0 mg/kg/injection, schedule: Q01DX001 (ip), vehicle: saline). For the same compound, the survivor count (dose: 7.5 mg/kg/injection, schedule: Q01DX005 (ip), vehicle: saline) is 9 of 10 on day 9; the survivor count (dose: 15.0 mg/kg/injection, schedule: Q01DX005 (ip), vehicle: saline) is reported as 9 of 10 on day 9; the survivor count (dose: 15.0 mg/kg/injection, schedule: Q01DX009 (ip), vehicle: saline) is 10 of 10; the survivor count (dose: 30.0 mg/kg/injection, schedule: Q01DX001 (ip), vehicle: saline) is reported as 10 of 10 on day 9; the survivor count (dose: 30.0 mg/kg/injection, schedule: Q01DX005 (ip), vehicle: saline) was 9 of 10 on day 9; the survivor count (dose: 30.0 mg/kg/injection, schedule: Q01DX009 (ip), vehicle: saline) is on record as 7 of 10, 9 of 10, 10 of 10. In addition, under “dose: 60.0 mg/kg/injection, schedule: Q01DX001 (ip), vehicle: saline”, the survivor count was 8 of 10 on day 9.
For the compound `CNCCN=c1ccc2c3c1c(O)c1c(O)ccc(=O)c1c3[nH]n2CCNCCO`, the survivor count was 10 of 10 (dose: 6.0 mg/kg/injection, schedule: Q01DX009 (ip), vehicle: water); 10 of 10 (dose: 6.25 mg/kg/injection, schedule: Q01DX009 (ip), vehicle: water); 8 of 10 (dose: 12.0 mg/kg/injection, schedule: Q01DX009 (ip), vehicle: water); 10 of 10 (dose: 12.5 mg/kg/injection, schedule: Q01DX009 (ip), vehicle: water); 2 of 10 (dose: 25.0 mg/kg/injection, schedule: Q01DX009 (ip), vehicle: water); 0 of 10 (dose: 50.0 mg/kg/injection, schedule: Q01DX009 (ip), vehicle: water).
In the case of `NC(=O)CC(NC(=O)OCC1c2ccccc2-c2ccccc21)C(=O)O` (stereo unspecified), under “dose: 50.0 mg/kg/injection, schedule: Q01DX009 (ip), vehicle: Klucel (hydroxypropylcellulose) (HPC)”, the survivor count was 6 of 10.
With `O=[N+]([O-])O.[Ga]`, the survivor count runs as follows: (dose: 100.0 mg/kg/injection, schedule: Q01DX009 (ip), vehicle: saline) 10 of 10; (dose: 200.0 mg/kg/injection, schedule: Q01DX009 (ip), vehicle: saline) 8 of 10; (dose: 400.0 mg/kg/injection, schedule: Q01DX009 (ip), vehicle: saline) 3 of 10.
Take `CNC=O`: the survivor count (dose: 800.0 mg/kg/injection, schedule: Q01DX009 (ip), vehicle: saline) was 8 of 10.
